Data as given in patent publication US11160813B2, “Combination therapy for nonalcoholic steatohepatitis (NASH) and liver fibrosis” (Modunex Bio Corp., priority 2016, dated 2021).
Entries after “also recorded” stand apart in the source; their conditions may differ. At least one compound was matched to its structure with a doubt left.

Test system: mouse model of NASH
Assay: mouse model of NASH and fibrosis induced by streptozocin and high fat diet
Format: in vivo, C59BL/6J mice
Description: We have utilized a well validated mice model in which the NASH and fibrosis was induced by sequential induction of diabetes mellitus and a high fat diet (14). On day 2, C59BL/6J mice were injected with streptozocin, then treated with high fat diet from week 4 until week 9. The intervention treatment started from week 5 until week 9. On week 9, these mice were euthanized.
NAS scores were determined according to the consensus by Nonalcoholic Steatohepatitis Clinical Research Network (13)
Fibrosis scores were determined according to the consensus by Nonalcoholic Steatohepatitis Clinical Research Network (13).

With `CC[C@H]1[C@@H](O)[C@@H]2[C@H](CC[C@]3(C)[C@@H]([C@H](C)CCC(=O)O)CC[C@@H]23)[C@@]2(C)CC[C@@H](O)C[C@@H]12` [OCA, 6 α-ethyl-chemodeoxycholic acid] the NAS score (FIG. 1A, maraviroc 45 mg/kg once daily orally, OCA 30 mg/kg once daily, alone or in combination, 4 wks) was “modest reduction of NAS scores; also recorded: modest reduction of the NAS score”, the NAS score (FIG. 1B, OCA and MK-0812 (10 mg twice daily), alone or in combination) was “modest reduction of NAS scores” and the NAS score (FIG. 1B, half dose of OCA, 15 mg/mg instead of 30 mg/kg, alone or with MK-0812 10 mg twice daily) was “little effect”. The “fibrosis evidenced by staining of collagen (liver histology)” value (FIG. 2A, maraviroc 45 mg/kg, OCA 30 mg/kg once daily, 4 wks) was “reduction of fibrosis; also recorded: effective in reducing fibrosis”, the “fibrosis evidenced by staining of collagen (liver histology)” value (FIG. 2B, OCA and MK-0812) was “reduction of fibrosis” and the fibrosis score (FIG. 3A, maraviroc 45 mg/kg, OCA 30 mg/kg once daily, 4 wks) was “reduction of fibrosis score”. For the same molecule, the fibrosis score (FIG. 3B, OCA and MK-0812, combination with half dose OCA and MK-0812 10 mg twice daily) was “reduction of fibrosis score”, the liver inflammation (FIG. 4A, maraviroc 45 mg/kg, OCA 30 mg/kg once daily, 4 wks) was “reduction of liver inflammation” and the liver inflammation (FIG. 4B, OCA and MK-0812) was “reduction of liver inflammation”. For the same molecule, the hepatocyte ballooning score (FIG. 5A, maraviroc 45 mg/kg, OCA 30 mg/kg once daily, 4 wks) was “marginal effect”, the hepatocyte ballooning score (FIG. 5B, OCA and MK-0812) was “reduction of hepatocyte ballooning score” and the steatosis (FIG. 6A, maraviroc 45 mg/kg, OCA 30 mg/kg once daily, 4 wks) was “modest reduction of steatosis”. The steatosis (FIG. 6B, full dose OCA, MK-0812 alone) was “reduction of steatosis” and the steatosis (FIG. 6B, half dose of OCA, alone or with MK-0812) was “no apparent effect on steatosis”.
